{"source": "paper PMC5382584", "about": "“In search of tail-anchored protein machinery in plants: reevaluating the role of arsenite transporters” (Scientific Reports, 2017)", "molecular_target": "Cr-Sec61β (C. reinhardtii Sec61β) with a C-terminal His-tag (C. reinhardtii)", "assay": "pull-down; co-expression in E. coli BL21 (DE3) of untagged ArsA protein (pET21) with C-terminally His-tagged TA protein (pET28); IMAC (Ni-NTA) co-purification from the soluble lysate, washes with 50 and 100 mM imidazole, elution with 250 mM imidazole, SDS-PAGE; bands confirmed by mass spectrometry for Cr-ArsA1/Cr-TOC34-NTC", "note": "These are yes or no findings as the source states them, for the method shown. In cells and extracts the contact can be indirect. A result given as binding can be weak or reduced; the word gives no strength. Tags and fused reporters may be left off the sequences shown."}
{"binder": "Cr-ArsA2 (C. reinhardtii ArsA2), recombinant, purified (natural protein, UniProt A8IXB8 1-362, looked up, ArsA2 of Chlamydomonas reinhardtii, full-length open reading frame, one ATPase domain; pET21 modified with a TEV site between the N-terminal 6His-tag and the polylinker; Seen as dimers and tetramers; also called Dimeric Cr-ArsA2; arsenite transporter ArsA2; source: E. coli BL21 (DE3), purified (Ni-NTA, size-exclusion chromatography)) MAADMPDPTLQNVVDQKELKWIFVGGKGGVGKTTTSSSLAVALAESGTRNRVLIISTDPAHNLSDAFRQKFTKTPTLVNGFTNLFAMEVDPQPDIGEMEQLEWAQDSFLTELAGSIPGIDEAMSFAEVMKQVQTMDYDTIVFDTAPTGHTLRLLNFPTILEKGLSKLVALKGAMGGMMGQVTRMLGGMAGGGEGAADLPDQLLGKVEGMLDVVRKVSAQFKDPLLTTFVAVCIPEFLSLYETERLVQELAKFEIDCRNIVINQIIFPESVGGSRLLDARVRMQQKYLDQFYELYEDFHILQLPLLEEEVRGPEALKAFAVNLLKPYVPAPPTDAAARQAALVSEVAALKKRVAELEAALAKK", "values": [{"measurement": "binding", "result": "binds"}]}
